This note sets out measurements from PubChem BioAssay AID330 (DTP/NCI, 2004).

This assay deals with P388 leukemia ip, CD2F1 mice, survival T/C. Briefly: NCI In Vivo Anticancer Drug Screen. Data for tumor model P388 Leukemia (intraperitoneal) in CD2F1 (CDF1) mice. To be noted: T/C endpoint: median survival time, higher T/C = longer survival.
Where [1] appears, read: dose: 100.0 mg/kg/injection, schedule: Q01DX009 (ip), vehicle: distilled water + Tween-80.
Where [2] appears, read: dose: 50.0 mg/kg/injection, schedule: Q01DX009 (ip), vehicle: saline with Tween-80.
[3] abbreviates: dose: 200.0 mg/kg/injection, schedule: Q01DX009 (ip), vehicle: Klucel (hydroxypropylcellulose) (HPC).
Where [4] appears, read: dose: 400.0 mg/kg/injection, schedule: Q01DX009 (ip), vehicle: Klucel (hydroxypropylcellulose) (HPC).
[5] abbreviates: dose: 200.0 mg/kg/injection, schedule: Q04DX003 (ip), vehicle: saline with Tween-80.
Where [6] appears, read: dose: 200.0 mg/kg/injection, schedule: Q01DX005 (ip), vehicle: saline with Tween-80.
The mark [7] stands for this setting: dose: 200.0 mg/kg/injection, schedule: Q01DX005 (ip), vehicle: Klucel (hydroxypropylcellulose) (HPC).
[8] abbreviates: dose: 240.0 mg/kg/injection, schedule: Q01DX005 (ip), vehicle: saline with Tween-80.
Setting [9] is: dose: 240.0 mg/kg/injection, schedule: Q01DX005 (ip), vehicle: Klucel (hydroxypropylcellulose) (HPC).

The list shows only some results of the screen, not a fair sample: it gathers tests that were run many times, whatever their T/C, doses with no T/C, and many T/C values between a quarter and a half above the control. Other doses and runs of a compound stand elsewhere. T/C: endpoint of the treated group in % of that of the vehicle group. Some doses have a count of surviving animals in place of a T/C: the source files T/C as zero there, which appears to mark a toxic dose or a test without result, not a measured value. Some survivor counts are full or nearly so, which does not show that the dose was tolerated: the source hardly ever lists a survival T/C far under the control, and the zero likely stands for such cases as well. Counts of survivors are from the toxicity check (mostly the fifth day) where no day follows; animals may have died later. Schedules are NCI's codes, taken here to give the interval after Q, in days (D) or hours (H), and the number of doses after X. Some entries were tested several times; their values stand side by side, smallest first. Counts like (3×) give the number of equal values in this list. Where survival is the endpoint, this PubChem deposit counts one and a half times the control or more as active, and values a quarter to a half above the control carry no call in these data; other NCI protocols may use other cut-offs. Some T/C values carry the count of animals alive at the toxicity check (mostly the fifth day); without a count, all were alive then.

In the case of `CNC(=O)OCc1c(COC(=O)NC)c(-c2ccc(N)cc2)n(C)c1C`, the T/C was 134 % of control (dose: 50.0 mg/kg/injection, schedule: Q01DX009 (ip), vehicle: distilled water + Tween-80) and 135 % of control [5 of 6 alive] under setting [1]. For the same compound, the survivor count runs as follows: under setting [1], 3 of 6; (dose: 200.0 mg/kg/injection, schedule: Q01DX009 (ip), vehicle: distilled water + Tween-80) 0 of 6.

On to `Fc1ccc(Nc2c3ccccc3nc3ccccc23)cc1`, for which the T/C under setting [2] was 125 % of control.

`O=C1c2ccccc2C(=O)C1(Br)C(Br)c1ccccc1` (stereo unspecified): the survivor count is on record as 5 of 6 under setting [3] and 5 of 6 under setting [4].

Take `CCC1(O)CC(OC2CC(N(C)C)C(OC3CC(O)C(OC4CC(O)C(O)C(C)O4)C(C)O3)C(C)O2)c2c(cc3c(c2O)C(=O)c2c(O)ccc(O)c2C3=O)C1C(=O)OC` (stereo unspecified): where the note is “dose: 50.0 mg/kg/injection, schedule: Q04DX003 (ip), vehicle: Klucel (hydroxypropylcellulose) (HPC)”, the T/C was 134 % of control.

For `CCOc1ccc(Cc2nc3c([nH]2)c(=O)n(C)c(=O)n3C)cc1OCC`, the survivor count is recorded as 6 of 6 (dose: 100.0 mg/kg/injection, schedule: Q04DX003 (ip), vehicle: saline with Tween-80) and 6 of 6 (dose: 400.0 mg/kg/injection, schedule: Q04DX003 (ip), vehicle: saline with Tween-80).

For `CCC1=C2C(=O)c3ccccc3C2=C(C)S(=O)(=O)O1`, the survivor count under setting [5] was 4 of 6.

For the compound `CN=P1(NC)NP(=NC)(NC)NP(=NC)(NC)NP(=NC)(NC)N1.[Cl-].[Cl-].[Cl-].[Cl-].[Pt+2]` (stereo unspecified), the survivor count under setting [5] is reported as 0 of 6.

On to `Cn1cccc1/C=N/N1CC(=O)N(c2ccccc2)CC1=O`, for which the survivor count under setting [6] was 1 of 6.

Take `CC(C)CC(=O)C1C(c2ccccc2)CC(=O)C(C(C)C)C1c1ccccc1` (stereo unspecified): the survivor count under setting [6] is recorded as 5 of 5.

As for `C=C(C)COc1ccc(C)cc1`, the survivor count (dose: 200.0 mg/kg/injection, schedule: Q01DX009 (ip), vehicle: other) is recorded as 2 of 6.

`C=C1C(=O)OC2/C=C(CO)/C=C\C3OC3(C)CC(OC(=O)/C(=C/C)CO)C12` (stereo unspecified): the T/C (dose: 50.0 mg/kg/injection, schedule: Q01DX005 (ip), vehicle: Klucel (hydroxypropylcellulose) (HPC)) is 125 % of control. Moreover, the survivor count is 0 of 6 (2×) (dose: 100.0 mg/kg/injection, schedule: Q01DX005 (ip), vehicle: Klucel (hydroxypropylcellulose) (HPC)) and 0 of 6 under setting [7].

`CC12CC3CC(C)(C1)CC(SC(=N)N)(C3)C2`: the survivor count is given as 0 of 6 (dose: 60.0 mg/kg/injection, schedule: Q01DX005 (ip), vehicle: saline with Tween-80); 0 of 6 (dose: 120.0 mg/kg/injection, schedule: Q01DX005 (ip), vehicle: saline with Tween-80); 0 of 6 under setting [8].

For the compound `CN=C(N)c1ccc(N=C(N)c2ccc(-c3ccc(C(N)=Nc4ccc(C(N)=NC)cc4)cc3)cc2)cc1`, the T/C by setting is: (dose: 5.3 mg/kg/injection, schedule: Q01DX009 (ip), vehicle: saline) 131 % of control; (dose: 8.0 mg/kg/injection, schedule: Q01DX009 (ip), vehicle: saline) 140 % of control; (dose: 12.0 mg/kg/injection, schedule: Q01DX009 (ip), vehicle: saline) 140 % of control.

On to `N#C[CH2][Sn]([I])([c]1ccccc1)[c]1ccccc1`, for which the T/C was 128 % of control (dose: 0.78 mg/kg/injection, schedule: Q01DX009 (ip), vehicle: saline with Tween-80); 134 % of control (dose: 1.56 mg/kg/injection, schedule: Q01DX009 (ip), vehicle: saline with Tween-80); 144 % of control (dose: 3.12 mg/kg/injection, schedule: Q01DX009 (ip), vehicle: saline with Tween-80); 144 % of control (dose: 3.13 mg/kg/injection, schedule: Q01DX009 (ip), vehicle: saline with Tween-80). Moreover, the survivor count reads like this: (dose: 6.25 mg/kg/injection, schedule: Q01DX009 (ip), vehicle: saline with Tween-80) 3 of 6 and 4 of 6; (dose: 12.5 mg/kg/injection, schedule: Q01DX009 (ip), vehicle: saline with Tween-80) 0 of 6; (dose: 25.0 mg/kg/injection, schedule: Q01DX009 (ip), vehicle: saline with Tween-80) 0 of 6; under setting [2], 0 of 6.

Regarding `CC(C)C1CC(N(C)C)=CC(=S)N1` (stereo unspecified), the survivor count (dose: 50.0 mg/kg/injection, schedule: Q01DX005 (ip), vehicle: saline) is 4 of 6 and the survivor count under setting [7] is on record as 3 of 6.

For `CN(C)C=O`, the T/C (dose: 200.0 mg/kg/injection, schedule: Q01DX009 (ip), vehicle: saline) is 102 [4 of 5 alive], 108, 115, 120 % of control; the T/C (dose: 400.0 mg/kg/injection, schedule: Q01DX009 (ip), vehicle: saline) is 111 [5 of 6 alive], 113, 116, 120 % of control; the T/C (dose: 800.0 mg/kg/injection, schedule: Q01DX009 (ip), vehicle: saline) was 125 % of control; the T/C (dose: 1600.0 mg/kg/injection, schedule: Q01DX009 (ip), vehicle: saline) is 125 and 132 % of control [4 of 6 alive]. Also, where the note is “dose: 3200.0 mg/kg/injection, schedule: Q01DX009 (ip), vehicle: saline”, the survivor count is 1 of 6 and 3 of 6.

In the case of `CC(=O)OC1CC2C3(C)CCC4C(C)(C)CCCC4(C)C3CC(O)C2(C)C2C1=COC2OC(C)=O` (stereo unspecified), the survivor count was 2 of 6 and 4 of 6 (dose: 60.0 mg/kg/injection, schedule: Q01DX005 (ip), vehicle: Klucel (hydroxypropylcellulose) (HPC)); 0 of 6 (dose: 120.0 mg/kg/injection, schedule: Q01DX005 (ip), vehicle: Klucel (hydroxypropylcellulose) (HPC)); 0 of 6 under setting [9].

With `CNCC(O)CC12CCC(c3ccccc31)c1ccccc12` (stereo unspecified), under setting [3], the survivor count is 0 of 6.

As for `Cc1ccc(S(=O)(=O)N=S(=O)(CCCl)CCCl)cc1`, the survivor count (dose: 100.0 mg/kg/injection, schedule: Q04DX003 (ip), vehicle: suspension in saline) is 0 of 6; the survivor count (dose: 200.0 mg/kg/injection, schedule: Q04DX003 (ip), vehicle: suspension in saline) is recorded as 0 of 6; the survivor count (dose: 400.0 mg/kg/injection, schedule: Q04DX003 (ip), vehicle: suspension in saline) is 0 of 6.

On to `CC(CCCSC(=N)N)SC(=N)N` (stereo unspecified), for which, where the note is “dose: 100.0 mg/kg/injection, schedule: Q01DX009 (ip), vehicle: saline”, the survivor count was 3 of 6.

As to `C/C(=N/N=C(N)N)c1cnn(C(=N)N)c1C`, the survivor count under setting [9] is 3 of 6.

Turning to `CCN(CC)CCOC(=O)Nc1cc(C)cc(C)c1`, the survivor count under setting [8] was 0 of 6.

In the case of `OCn1nnc2ccccc21`, the T/C was 125 % of control (2×) (dose: 50.0 mg/kg/injection, schedule: Q01DX009 (ip), vehicle: Klucel (hydroxypropylcellulose) (HPC)); 127 and 130 % of control [5 of 6 alive] (dose: 100.0 mg/kg/injection, schedule: Q01DX009 (ip), vehicle: Klucel (hydroxypropylcellulose) (HPC)); 142 and 142 % of control [5 of 6 alive] under setting [3]; 137 % of control [4 of 6 alive] under setting [4]. For the same compound, the survivor count under setting [4] was 2 of 6 and 4 of 6.

In the case of `CC1Nc2nc(N)[nH]c(=O)c2NC1C` (stereo unspecified), the survivor count (dose: 25.0 mg/kg/injection, schedule: Q01DX005 (ip), vehicle: saline) is 4 of 6.

Consider `CC(C)Oc1nc(N2CCNCC2)nc2c1CCC2`, for which the survivor count was 4 of 6 (dose: 60.0 mg/kg/injection, schedule: Q01DX005 (ip), vehicle: saline); 0 of 6 (dose: 120.0 mg/kg/injection, schedule: Q01DX005 (ip), vehicle: saline); 0 of 6 (dose: 240.0 mg/kg/injection, schedule: Q01DX005 (ip), vehicle: saline).

Turning to `COc1cc(C2CC(C)(OC)Oc3cc4c(cc32)OCO4)cc(OC)c1OC` (stereo unspecified), the T/C under setting [8] was 130 % of control. Besides, the survivor count (dose: 480.0 mg/kg/injection, schedule: Q01DX005 (ip), vehicle: saline with Tween-80) is 0 of 6 and 3 of 6.

For `Cc1ccc(/C=C/C(=N/Nc2ccccc2)C(C)CN(C)C)cc1` (stereo unspecified), the survivor count under setting [8] was 0 of 6.
